Reference: PubChem BioAssay AID504834 (National Center for Advancing Translational Sciences (NCATS), 2011)
The campaign covered roughly 320,000 compounds. About 22,000 (6.9%) were called active. This list was built around the results that the source calls inconclusive (neither active nor inactive); the mix of calls is not that of the screen. Calls follow the shape of the dose curve; as a rule, active = well fitted inhibition curve with a large enough effect; inconclusive = small, poorly fitted or top-dose-only effect, or another doubt; inactive = no such curve, though single readings can be large or run the other way. Potencies beside an inconclusive call are fits to weak or partial responses and may not hold up.

Assay: Primary qHTS for delayed death inhibitors of the malarial parasite plastid, 96 hour incubation
Settings: P. falciparum luciferase reporter growth; series mostly up to 28.7 µM
Summary of the method: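 Compounds incubated with erythrocytes infected by luciferase-expressing P. falciparum (2% hematocrit, 0.05% parasitemia final) for 96 hours, 37 C in 5% CO2. Growth inhibition scored as decreased luciferase luminescence.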
% is scaled to controls: 0 for no effect and ±100 for the full control effect; potency is read from the fitted curve at half-maximal effect.

| Compound | activity change, negative = inhibition | Potency |
| --- | --- | --- |
| CCOc1ccc2[nH]c(=O)c(CN(CCO)C(c3nnnn3C3CCCCC3)C(C)C)cc2c1 (stereo not drawn) | inactive: -17.5% [at 5.75 µM] |  |
| CCCc1cc(=O)[nH]c(SCc2nc3ccccc3s2)n1 |  | inconclusive: 0.0828 µM [inhibitor, full curve, poor fit] |
| O=C(Nc1ccnn1C1CCN(CCCc2ccccc2)CC1)c1cccc(F)c1 |  | inactive |
| COc1ccccc1C1CC(c2ccco2)=NN1S(C)(=O)=O (stereo not drawn) |  | inactive |
| CCCC(O)(CCN1CCOCC1)c1ccc(Br)cc1 (stereo not drawn) |  | inconclusive: 7.38 µM [inhibitor, partial curve] |
| CCCNC(=O)C(Cc1ccc(OC)cc1)NC(=O)c1ccc(C#N)cc1 (stereo not drawn) |  | inconclusive: 16.5 µM [inhibitor, single point] |
| C/C(=N/OCc1ccc(Br)cc1)c1ccccn1 |  | inactive |
| Cc1nn(CCCC(=O)Nc2cccnc2Cl)c(C)c1[N+](=O)[O-] |  | inconclusive: 13.1 µM [inhibitor, partial curve] |
| Cc1nc(SCc2ccc([N+](=O)[O-])cc2)nc2ccccc12 |  | inactive |
| COC(=O)C1CCN(C(=O)COC(=O)c2cc(-c3ccccc3)nc3ccc(OC)cc23)CC1 |  | inconclusive: 10.4 µM [inhibitor, partial curve] |
| O=C(C1CCCO1)N1CCN(Cc2nc3ccccc3c(=O)[nH]2)CC1 (stereo not drawn) |  | inconclusive: 9.28 µM [inhibitor, single point] |
| CC(CNC1CCCCC1)OC(=O)c1ccccc1 (stereo not drawn) |  | inactive |
| Cc1cccc(CSc2ccc(S(=O)(=O)N3CCCC3)cn2)c1 |  | active: 6.57 µM |
| Cc1ccc(S(=O)(=O)N2CCN(C(=O)COC(=O)c3c(C)cc(C)cc3C)CC2)c(C)c1 |  | inconclusive: 5.22 µM [inhibitor, partial curve] |
| CC(C)(O)C#CC#CCN1CCOCC1 |  | active: 10.4 µM |
| CCn1c(COc2ccc(C)cc2)nnc1SCc1ccc(C#N)cc1 |  | inconclusive: 18.5 µM [inhibitor, partial curve, poor fit] |
| CCOCCc1nnc(NC(=O)C2CCN(C(=O)c3ccco3)CC2)s1 |  | inconclusive: 14.7 µM [inhibitor, partial curve] |
| CC1CCN(c2nc3c(c(=O)n(C)c(=O)n3C)n2CCSc2nc3ccccc3s2)CC1 |  | inconclusive: 1.17 µM [inhibitor, full curve, poor fit] |
| CC(C)Oc1ccc(Br)cc1/C=N\NC(N)=S |  | inconclusive: 7.38 µM [inhibitor, partial curve, poor fit] |
| CCc1nnc(NC(=S)Nc2ccccc2)s1 |  | inconclusive: 18.5 µM [inhibitor, single point] |
| CCC1=C(OC(=O)N(CC)CC)N2C(=O)OC(=NCC3CC3)[C@]2(C)[C@H]2C1=CC[C@H]1C(=O)NC(=O)[C@H]12 |  | inconclusive: 18.5 µM [inhibitor, single point] |
| Fc1ccc(C(CNC(=S)NC2CCCCC2)N2CCOCC2)cc1 (stereo not drawn) |  | inconclusive: 3.7 µM [inhibitor, full curve, poor fit] |
| Cc1ccccc1Cn1nc(C)c(NC(=O)c2cc(-c3cccs3)on2)c1C |  | inconclusive: 13.1 µM [inhibitor, partial curve, poor fit] |

19 successive records already listed, quoted:

| Compound | activity change, negative = inhibition | Potency |
| --- | --- | --- |
| CCCC(O)(CCN1CCOCC1)c1ccc(Br)cc1 (stereo not drawn) |  | inconclusive: 7.38 µM [inhibitor, partial curve] |
| CCCNC(=O)C(Cc1ccc(OC)cc1)NC(=O)c1ccc(C#N)cc1 (stereo not drawn) |  | inconclusive: 16.5 µM [inhibitor, single point] |
| C/C(=N/OCc1ccc(Br)cc1)c1ccccn1 |  | inactive |
| Cc1nn(CCCC(=O)Nc2cccnc2Cl)c(C)c1[N+](=O)[O-] |  | inconclusive: 13.1 µM [inhibitor, partial curve] |
| Cc1nc(SCc2ccc([N+](=O)[O-])cc2)nc2ccccc12 |  | inactive |
| COC(=O)C1CCN(C(=O)COC(=O)c2cc(-c3ccccc3)nc3ccc(OC)cc23)CC1 |  | inconclusive: 10.4 µM [inhibitor, partial curve] |
| O=C(C1CCCO1)N1CCN(Cc2nc3ccccc3c(=O)[nH]2)CC1 (stereo not drawn) |  | inconclusive: 9.28 µM [inhibitor, single point] |
| CC(CNC1CCCCC1)OC(=O)c1ccccc1 (stereo not drawn) |  | inactive |
| Cc1cccc(CSc2ccc(S(=O)(=O)N3CCCC3)cn2)c1 |  | active: 6.57 µM |
| Cc1ccc(S(=O)(=O)N2CCN(C(=O)COC(=O)c3c(C)cc(C)cc3C)CC2)c(C)c1 |  | inconclusive: 5.22 µM [inhibitor, partial curve] |
| CC(C)(O)C#CC#CCN1CCOCC1 |  | active: 10.4 µM |
| CCn1c(COc2ccc(C)cc2)nnc1SCc1ccc(C#N)cc1 |  | inconclusive: 18.5 µM [inhibitor, partial curve, poor fit] |
| CCOCCc1nnc(NC(=O)C2CCN(C(=O)c3ccco3)CC2)s1 |  | inconclusive: 14.7 µM [inhibitor, partial curve] |
| CC1CCN(c2nc3c(c(=O)n(C)c(=O)n3C)n2CCSc2nc3ccccc3s2)CC1 |  | inconclusive: 1.17 µM [inhibitor, full curve, poor fit] |
| CC(C)Oc1ccc(Br)cc1/C=N\NC(N)=S |  | inconclusive: 7.38 µM [inhibitor, partial curve, poor fit] |
| CCc1nnc(NC(=S)Nc2ccccc2)s1 |  | inconclusive: 18.5 µM [inhibitor, single point] |
| CCC1=C(OC(=O)N(CC)CC)N2C(=O)OC(=NCC3CC3)[C@]2(C)[C@H]2C1=CC[C@H]1C(=O)NC(=O)[C@H]12 |  | inconclusive: 18.5 µM [inhibitor, single point] |
| Fc1ccc(C(CNC(=S)NC2CCCCC2)N2CCOCC2)cc1 (stereo not drawn) |  | inconclusive: 3.7 µM [inhibitor, full curve, poor fit] |
| Cc1ccccc1Cn1nc(C)c(NC(=O)c2cc(-c3cccs3)on2)c1C |  | inconclusive: 13.1 µM [inhibitor, partial curve, poor fit] |

More records follow.

| Compound | activity change, negative = inhibition | Potency |
| --- | --- | --- |
| O=C(c1ccco1)N1CCN(C(=S)Nc2ccc(Br)cc2Cl)CC1 |  | inconclusive: 18.5 µM [inhibitor, single point] |
| O=C(N/N=C/c1ccco1)c1ccc(OCc2ccccc2)cc1 |  | inactive |
| Cc1ccc(C2C(C#N)=C(N)N(c3cccnc3)C3=C2C(=O)CCC3)s1 (stereo not drawn) |  | inactive |
| CCSc1nnc(-c2cccnc2)n1-c1ccc(C)c(Cl)c1 |  | active: 4.65 µM |
| Cc1cc(Cl)nc(Cl)c1C(=O)NC(=O)NCCC(C)C |  | inconclusive: 18.5 µM [inhibitor, single point] |
| CCn1nc(C(=O)Nc2ccccc2N2CCCC2)c2ccccc2c1=O |  | inconclusive: 18.5 µM [inhibitor, single point] |
| COc1cccc(/C=N/NC(=O)c2ccccc2)c1OS(=O)(=O)c1ccccc1 |  | inconclusive: 6.57 µM [inhibitor, partial curve, poor fit] |
| COc1ccc(NC(=S)N2CCC(c3nc4ccccc4o3)CC2)c(OC)c1 |  | inactive |
| COc1ccccc1CNC(=S)NCc1ccc(F)cc1 |  | inconclusive: 4.15 µM [inhibitor, single point] |
| CC1(C)CC(=O)c2ccc(OCc3ccc([N+](=O)[O-])cc3)cc2O1 |  | inactive |
| O=C(CCSc1ccccc1)Nc1ccc(S(=O)(=O)Nc2ncccn2)cc1 |  | inactive |
| COc1cc(OC)c2ccc(=O)oc2c1C(CC(=O)N1CCCC1)c1ccc2c(c1)OCO2 (stereo not drawn) |  | inconclusive: 10.4 µM [inhibitor, single point] |
| CCCN(CCC)S(=O)(=O)c1ccc(C(=O)Nc2nc3c(s2)CCc2ccccc2-3)cc1 |  | inconclusive: 18.5 µM [inhibitor, single point] |
| CCOC(=O)N1CCC(Nc2c(Nc3ccc(F)cc3)c(=O)c2=O)CC1 |  | inconclusive: 11.7 µM [inhibitor, single point] |
| Cc1cccc(/N=C/c2nc(-c3ccccc3Br)oc2O)n1 |  | inconclusive: 0.465 µM [inhibitor, full curve, poor fit] |
| Cc1cc(NC(=O)CCCn2cc([N+](=O)[O-])cn2)n(Cc2ccc(F)cc2)n1 |  | inconclusive: 18.5 µM [inhibitor, single point] |
| COC(=O)c1ccccc1NC(=O)C/C(C)=N/NC(=O)CC#N |  | inconclusive: 11.7 µM [inhibitor, single point] |
| COc1ccc(S(=O)(=O)N2CCC(C(=O)NC(c3nc4ccccc4[nH]3)C(C)C)CC2)cc1 (stereo not drawn) |  | inconclusive: 11.7 µM [inhibitor, single point] |
| O=C(N/N=C/c1cc([N+](=O)[O-])ccc1O)c1ccc(COc2ccc3c(c2)CCC3)o1 |  | active: 9.28 µM |
| CCNc1sc(C(=O)c2cccs2)c(N)c1-c1nc2ccccc2s1 |  | inconclusive: 18.5 µM [inhibitor, single point] |
| CN1C[C@H](C(=O)N[C@]2(C)O[C@@]3(O)[C@@H]4CCCN4C(=O)[C@H](Cc4ccccc4)N3C2=O)C=C2c3cccc4[nH]cc(c34)C[C@H]21 |  | active: 0.301 µM |
| Cc1cccc(C(=O)N2CCC(=O)N(C(COCc3cccc(C(F)(F)F)c3)Cc3ccccc3)CC2)c1 (stereo not drawn) |  | active: 9.28 µM |
| Cc1nn(CC(=O)NCCCN2CCCCC2)c(=O)c2cc(-c3ccccc3)nn12 |  | active: 4.15 µM |

| Compound | activity change, negative = inhibition | Potency |
| --- | --- | --- |
| O=C(Nc1cc(S(=O)(=O)N2CCCCC2)ccc1Cl)c1ccccc1NS(=O)(=O)c1ccc(F)cc1 |  | inconclusive: 18.5 µM [inhibitor, single point] |
| O=C(CNc1ccc2ccccc2c1)N/N=C/c1ccc(C(=O)O)cc1 |  | inactive |
| O=C(Oc1cccc2c(O)cccc12)c1ccccc1 |  | inconclusive: 7.38 µM [inhibitor, partial curve] |
| CC(=O)c1cccc(NC(=O)C2C3C=CC(C3=C(c3ccccc3)c3ccccc3)C2C(=O)O)c1 (stereo not drawn) |  | inconclusive: 0.0041 µM [inhibitor, full curve, poor fit] |
| C=C1CCC[C@]2(C)C[C@H]3OC(=O)C(CNCC(OC)OC)[C@H]3CC12 (stereo partly drawn) |  | inactive |
| O=C(Cc1ccc(F)cc1)Nc1cccc(S(=O)(=O)N2CCCC2)c1 |  | inconclusive: 0.208 µM [inhibitor, full curve, poor fit] |
| Cn1cccc1C(=O)OCC(=O)Nc1cccc(S(=O)(=O)N2CCOCC2)c1 |  | inconclusive: 18.5 µM [inhibitor, single point] |
| Cc1ccc(OC/C(=N\O)C(C)(C)C)c([N+](=O)[O-])c1 |  | inactive |
| O=C(N/N=C\c1cc(Br)cs1)C1COc2ccccc2O1 (stereo not drawn) |  | inconclusive: 9.28 µM [inhibitor, partial curve] |
| O=C(Nc1cccnc1)c1ccc(Cl)c(S(=O)(=O)N2CCCCC2)c1 |  | inconclusive: 18.5 µM [inhibitor, single point] |
| Cc1csc(Nc2ccc(C(=O)O)cc2)n1 |  | inactive |
| Oc1ccccc1C1NN=C(c2ccccc2)S1 (stereo not drawn) |  | inconclusive: 10.4 µM [inhibitor, partial curve, poor fit] |
| COc1cccc(C(=O)Nc2ccc3c(c2)n(C)c(=O)n3C)c1 |  | inconclusive: 18.5 µM [inhibitor, single point] |
| CC(=O)Nc1ccc(NS(C)(=O)=O)cc1 |  | active: 4.65 µM |
| CCOc1ccccc1NC(=O)C(OC(=O)C1CC1)c1ccccc1 (stereo not drawn) |  | inactive |
| CCC(C)C(NC(=O)c1ccccc1NC(=O)c1ccc(OC)cc1)C(=O)NCCCn1ccnc1 (stereo not drawn) |  | inconclusive: 13.1 µM [inhibitor, single point] |
| CCCc1cc(C(=O)Nc2c(C)n(C)n(-c3ccccc3)c2=O)no1 |  | active: 9.28 µM |
| O=[N+]([O-])c1ccc(Cl)c(C2Nc3cccc4cccc(c34)N2)c1 |  | inconclusive: 18.5 µM [inhibitor, single point] |
| CSCCC(NS(=O)(=O)c1ccc(C)cc1)C(=O)NC1CCCCCC1 (stereo not drawn) |  | inconclusive: 9.28 µM [inhibitor, single point] |
| Cn1c(=O)c2c(nc(NCc3ccccc3)n2CC(=O)NCc2ccccc2)n(C)c1=O |  | inactive |
| O=C(NNC(=O)C12CC3CC(CC(C3)C1)C2)c1csc(N2CCOCC2)n1 |  | active: 13.1 µM |
| CO[C@@H]1[C@@H](OC2OC(C)C(OC3CC(C)(O)C(OC(=O)CC(C)C)C(C)O3)C(N(C)C)C2O)[C@@H](CC=O)C[C@@H](C)C(=O)/C=C\C2O[C@H]2C[C@@H](C)OC(=O)C[C@H]1OC(C)=O (stereo partly drawn) |  | active: 0.757 µM |
